In the supplement of paper PMC10849652 one finds log2 fold change data, which are given here for 33 targets.

Amino acid sequences for entries named in this document (tags omitted). A change or cut given only in a name is not applied to a line headed by its entry.
UniProt Q96BQ5: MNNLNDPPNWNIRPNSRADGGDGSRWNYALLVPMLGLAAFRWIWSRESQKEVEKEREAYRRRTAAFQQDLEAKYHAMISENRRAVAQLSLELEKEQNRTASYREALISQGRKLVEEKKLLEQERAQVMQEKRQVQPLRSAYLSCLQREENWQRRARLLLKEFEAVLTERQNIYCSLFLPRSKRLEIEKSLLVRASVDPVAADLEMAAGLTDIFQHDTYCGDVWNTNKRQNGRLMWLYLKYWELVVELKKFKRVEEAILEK
UniProt A2RUB6: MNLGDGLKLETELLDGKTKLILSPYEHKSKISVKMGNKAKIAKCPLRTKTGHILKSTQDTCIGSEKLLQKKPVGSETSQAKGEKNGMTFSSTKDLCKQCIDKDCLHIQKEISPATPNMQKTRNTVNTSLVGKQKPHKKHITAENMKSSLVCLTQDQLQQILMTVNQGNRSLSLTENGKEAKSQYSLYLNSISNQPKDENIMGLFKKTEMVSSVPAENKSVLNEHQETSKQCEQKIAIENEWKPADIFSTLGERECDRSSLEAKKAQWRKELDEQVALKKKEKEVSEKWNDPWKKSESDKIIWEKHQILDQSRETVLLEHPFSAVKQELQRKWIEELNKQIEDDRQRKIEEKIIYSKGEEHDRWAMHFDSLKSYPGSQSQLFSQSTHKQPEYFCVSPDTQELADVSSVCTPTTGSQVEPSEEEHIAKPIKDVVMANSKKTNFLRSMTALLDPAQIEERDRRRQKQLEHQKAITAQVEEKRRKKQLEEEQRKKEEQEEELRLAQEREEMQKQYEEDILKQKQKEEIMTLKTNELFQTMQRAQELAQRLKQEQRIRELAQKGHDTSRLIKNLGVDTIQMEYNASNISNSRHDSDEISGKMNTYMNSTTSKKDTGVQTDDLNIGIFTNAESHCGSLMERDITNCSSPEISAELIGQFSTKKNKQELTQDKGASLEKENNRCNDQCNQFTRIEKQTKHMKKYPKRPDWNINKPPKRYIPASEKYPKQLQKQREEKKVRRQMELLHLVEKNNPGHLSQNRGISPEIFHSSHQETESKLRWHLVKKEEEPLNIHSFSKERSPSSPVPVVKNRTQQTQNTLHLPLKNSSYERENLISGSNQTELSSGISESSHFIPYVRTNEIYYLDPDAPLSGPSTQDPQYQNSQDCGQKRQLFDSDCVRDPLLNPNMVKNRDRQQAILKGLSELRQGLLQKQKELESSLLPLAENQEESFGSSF
UniProt P0C221: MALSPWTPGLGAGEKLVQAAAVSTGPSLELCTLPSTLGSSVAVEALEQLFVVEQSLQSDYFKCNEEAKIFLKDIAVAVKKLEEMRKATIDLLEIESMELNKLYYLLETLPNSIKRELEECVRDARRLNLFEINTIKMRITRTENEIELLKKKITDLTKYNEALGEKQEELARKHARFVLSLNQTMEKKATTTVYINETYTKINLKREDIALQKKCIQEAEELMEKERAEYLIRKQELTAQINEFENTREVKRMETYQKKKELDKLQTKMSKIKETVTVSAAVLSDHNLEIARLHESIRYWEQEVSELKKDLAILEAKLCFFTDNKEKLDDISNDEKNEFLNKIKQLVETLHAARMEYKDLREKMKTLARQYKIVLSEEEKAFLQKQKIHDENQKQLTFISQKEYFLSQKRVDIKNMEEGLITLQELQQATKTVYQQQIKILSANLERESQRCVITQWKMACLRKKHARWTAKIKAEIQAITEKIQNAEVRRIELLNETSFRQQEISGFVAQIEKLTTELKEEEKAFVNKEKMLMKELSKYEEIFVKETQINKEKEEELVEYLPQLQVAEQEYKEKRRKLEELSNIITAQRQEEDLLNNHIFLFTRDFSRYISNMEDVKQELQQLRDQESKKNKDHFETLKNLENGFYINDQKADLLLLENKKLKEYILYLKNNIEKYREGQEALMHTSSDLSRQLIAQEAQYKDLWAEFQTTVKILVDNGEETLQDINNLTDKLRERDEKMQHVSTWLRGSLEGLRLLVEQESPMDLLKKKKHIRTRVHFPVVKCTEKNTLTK
UniProt P13994: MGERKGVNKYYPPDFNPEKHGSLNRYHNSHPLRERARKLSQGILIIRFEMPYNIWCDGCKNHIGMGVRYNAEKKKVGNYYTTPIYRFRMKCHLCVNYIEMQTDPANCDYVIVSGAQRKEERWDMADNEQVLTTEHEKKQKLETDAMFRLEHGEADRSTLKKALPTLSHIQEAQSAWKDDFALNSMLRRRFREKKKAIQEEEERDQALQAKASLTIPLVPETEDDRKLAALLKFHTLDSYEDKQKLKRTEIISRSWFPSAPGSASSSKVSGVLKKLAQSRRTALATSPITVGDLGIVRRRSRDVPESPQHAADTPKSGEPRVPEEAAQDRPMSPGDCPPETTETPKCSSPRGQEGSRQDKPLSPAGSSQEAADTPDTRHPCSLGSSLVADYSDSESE
UniProt Q92851: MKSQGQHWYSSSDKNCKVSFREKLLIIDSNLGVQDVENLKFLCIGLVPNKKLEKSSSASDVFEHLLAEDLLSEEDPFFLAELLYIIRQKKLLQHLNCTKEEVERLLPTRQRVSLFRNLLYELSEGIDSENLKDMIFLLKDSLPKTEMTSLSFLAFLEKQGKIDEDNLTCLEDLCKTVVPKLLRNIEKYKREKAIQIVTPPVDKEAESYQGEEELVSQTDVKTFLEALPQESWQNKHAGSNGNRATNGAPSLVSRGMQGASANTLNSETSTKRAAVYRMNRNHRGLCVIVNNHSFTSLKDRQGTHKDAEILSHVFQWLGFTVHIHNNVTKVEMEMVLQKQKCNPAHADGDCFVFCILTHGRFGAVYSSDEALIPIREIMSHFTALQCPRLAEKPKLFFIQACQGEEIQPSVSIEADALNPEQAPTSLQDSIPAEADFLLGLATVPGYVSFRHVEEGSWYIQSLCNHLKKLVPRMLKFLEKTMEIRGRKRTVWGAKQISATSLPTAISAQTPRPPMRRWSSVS
UniProt Q96EE4: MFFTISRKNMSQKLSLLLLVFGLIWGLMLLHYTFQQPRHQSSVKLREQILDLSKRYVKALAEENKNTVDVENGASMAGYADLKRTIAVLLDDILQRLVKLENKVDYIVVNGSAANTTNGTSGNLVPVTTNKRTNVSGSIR
UniProt P51636: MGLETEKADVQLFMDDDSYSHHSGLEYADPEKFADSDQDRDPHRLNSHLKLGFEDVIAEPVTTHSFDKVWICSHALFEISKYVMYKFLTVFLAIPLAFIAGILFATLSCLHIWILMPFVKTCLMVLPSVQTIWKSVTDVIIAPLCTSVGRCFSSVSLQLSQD
UniProt Q8WTX7: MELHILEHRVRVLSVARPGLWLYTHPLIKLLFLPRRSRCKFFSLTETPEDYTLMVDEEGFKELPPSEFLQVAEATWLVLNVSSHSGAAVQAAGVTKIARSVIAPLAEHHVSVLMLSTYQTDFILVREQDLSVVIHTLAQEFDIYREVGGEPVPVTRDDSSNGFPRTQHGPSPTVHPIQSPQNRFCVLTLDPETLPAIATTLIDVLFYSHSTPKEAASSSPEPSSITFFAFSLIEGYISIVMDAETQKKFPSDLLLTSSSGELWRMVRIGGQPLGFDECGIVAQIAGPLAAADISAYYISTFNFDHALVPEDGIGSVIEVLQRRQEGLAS
UniProt P30279, whole entry, looked up: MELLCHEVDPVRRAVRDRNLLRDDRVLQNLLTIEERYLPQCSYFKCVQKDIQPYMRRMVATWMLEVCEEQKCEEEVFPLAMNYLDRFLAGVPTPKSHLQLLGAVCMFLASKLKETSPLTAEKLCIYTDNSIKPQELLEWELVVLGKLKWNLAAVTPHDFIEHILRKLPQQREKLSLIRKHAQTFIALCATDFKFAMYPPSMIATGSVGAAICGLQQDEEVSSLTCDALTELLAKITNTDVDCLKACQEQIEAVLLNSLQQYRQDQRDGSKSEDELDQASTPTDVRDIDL
UniProt Q9HC52: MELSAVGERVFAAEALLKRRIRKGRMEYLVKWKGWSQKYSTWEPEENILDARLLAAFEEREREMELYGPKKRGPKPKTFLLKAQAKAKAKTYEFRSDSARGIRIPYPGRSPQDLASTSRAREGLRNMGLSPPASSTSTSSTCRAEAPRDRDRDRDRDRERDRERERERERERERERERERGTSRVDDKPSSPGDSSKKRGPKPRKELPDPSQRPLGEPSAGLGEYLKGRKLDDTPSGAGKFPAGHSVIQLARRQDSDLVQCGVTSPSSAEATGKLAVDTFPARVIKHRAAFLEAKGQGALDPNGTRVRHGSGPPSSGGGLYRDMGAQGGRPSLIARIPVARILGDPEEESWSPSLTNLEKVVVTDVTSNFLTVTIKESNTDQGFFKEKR
UniProt Q13951, whole entry, looked up: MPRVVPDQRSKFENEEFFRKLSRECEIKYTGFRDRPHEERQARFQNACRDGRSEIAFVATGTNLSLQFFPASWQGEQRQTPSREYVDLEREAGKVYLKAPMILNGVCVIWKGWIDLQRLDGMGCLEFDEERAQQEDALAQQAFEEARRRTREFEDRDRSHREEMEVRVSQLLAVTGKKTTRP
UniProt P15529: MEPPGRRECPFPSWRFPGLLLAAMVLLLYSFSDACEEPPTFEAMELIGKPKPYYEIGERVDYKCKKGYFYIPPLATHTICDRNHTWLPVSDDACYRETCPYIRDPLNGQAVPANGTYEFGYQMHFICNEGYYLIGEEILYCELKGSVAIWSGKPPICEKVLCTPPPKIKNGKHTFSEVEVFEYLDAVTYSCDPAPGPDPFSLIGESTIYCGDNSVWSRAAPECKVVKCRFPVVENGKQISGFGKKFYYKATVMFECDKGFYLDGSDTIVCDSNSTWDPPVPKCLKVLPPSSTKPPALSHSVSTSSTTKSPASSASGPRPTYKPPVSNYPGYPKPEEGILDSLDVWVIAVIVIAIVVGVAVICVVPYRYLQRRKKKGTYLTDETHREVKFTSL
UniProt P30281: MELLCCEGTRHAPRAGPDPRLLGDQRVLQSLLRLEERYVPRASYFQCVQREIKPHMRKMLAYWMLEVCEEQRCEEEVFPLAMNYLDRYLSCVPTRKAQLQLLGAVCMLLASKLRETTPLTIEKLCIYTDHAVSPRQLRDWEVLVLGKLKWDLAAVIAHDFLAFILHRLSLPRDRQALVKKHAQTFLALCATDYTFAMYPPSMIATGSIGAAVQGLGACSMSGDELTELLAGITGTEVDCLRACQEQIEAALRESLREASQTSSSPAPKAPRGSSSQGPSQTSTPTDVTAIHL
UniProt P20138, whole entry, looked up: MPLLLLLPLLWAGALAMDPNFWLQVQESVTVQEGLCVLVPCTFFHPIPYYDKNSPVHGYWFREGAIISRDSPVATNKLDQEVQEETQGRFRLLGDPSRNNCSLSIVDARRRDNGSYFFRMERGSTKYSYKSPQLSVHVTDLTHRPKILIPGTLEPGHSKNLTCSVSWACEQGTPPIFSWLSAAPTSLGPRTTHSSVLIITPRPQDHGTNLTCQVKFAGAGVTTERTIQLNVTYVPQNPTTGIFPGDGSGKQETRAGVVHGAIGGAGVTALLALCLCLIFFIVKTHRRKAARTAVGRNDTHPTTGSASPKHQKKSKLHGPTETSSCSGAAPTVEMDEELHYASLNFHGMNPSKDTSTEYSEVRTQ
UniProt Q9P0B6: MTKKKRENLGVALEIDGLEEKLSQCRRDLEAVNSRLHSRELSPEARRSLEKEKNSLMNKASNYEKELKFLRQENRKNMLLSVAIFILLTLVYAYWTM
UniProt P16070: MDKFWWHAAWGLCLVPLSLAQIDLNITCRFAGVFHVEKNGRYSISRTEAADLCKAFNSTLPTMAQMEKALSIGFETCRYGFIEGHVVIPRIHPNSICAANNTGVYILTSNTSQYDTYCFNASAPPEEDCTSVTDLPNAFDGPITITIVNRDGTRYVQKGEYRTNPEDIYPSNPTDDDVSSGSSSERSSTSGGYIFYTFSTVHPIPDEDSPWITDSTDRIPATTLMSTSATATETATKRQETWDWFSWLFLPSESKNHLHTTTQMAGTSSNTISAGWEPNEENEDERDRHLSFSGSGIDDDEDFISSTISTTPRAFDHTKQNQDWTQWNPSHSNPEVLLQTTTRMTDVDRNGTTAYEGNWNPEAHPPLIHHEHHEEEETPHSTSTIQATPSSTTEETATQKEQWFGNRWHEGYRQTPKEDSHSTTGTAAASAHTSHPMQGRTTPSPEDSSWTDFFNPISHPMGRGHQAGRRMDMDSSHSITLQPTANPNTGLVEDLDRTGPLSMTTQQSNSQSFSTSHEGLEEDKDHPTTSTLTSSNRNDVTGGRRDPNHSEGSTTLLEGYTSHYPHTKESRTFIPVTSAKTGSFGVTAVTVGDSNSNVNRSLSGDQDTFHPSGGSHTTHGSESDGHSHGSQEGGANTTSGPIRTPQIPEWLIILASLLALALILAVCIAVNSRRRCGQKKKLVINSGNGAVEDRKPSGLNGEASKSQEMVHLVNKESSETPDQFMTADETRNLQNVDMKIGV
UniProt Q96MW1: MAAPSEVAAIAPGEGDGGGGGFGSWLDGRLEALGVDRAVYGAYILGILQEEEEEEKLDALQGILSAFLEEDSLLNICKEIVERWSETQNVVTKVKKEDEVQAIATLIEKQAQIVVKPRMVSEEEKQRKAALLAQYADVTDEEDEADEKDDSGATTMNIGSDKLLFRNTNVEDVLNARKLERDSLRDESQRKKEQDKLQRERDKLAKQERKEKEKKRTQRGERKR

This is one part of the list.

Common to all, as to assay: log2 fold change, soluble protein after heating vs DMSO (PISA); higher = thermal stabilisation; K562 lysate, 10 uM; active = over 0.2 and 3.5 SD of the protein, either way, in both replicates (recomputed)
Compound in one experiment: O=C(CCCCCCC(=O)Nc1ccccc1)NO [vorinostat]
The method in brief: (§1)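 Dounce homogenisation of K562 pellets in PBS pH 7.4 with 1 mM MgCl2 produced a crude extract, used at 1 mg/mL protein. Exposure to 10 μM compound lasted 30 min, and aliquots were then heated for 3 min across 48°C-58°C, pooled and brought to 0.5% NP-40 at 4°C. The supernatant after 21,000xg for 90 min was quantified by TMTpro 16plex LC-MS/MS with channel sums equalised. Duplicate values are given as log-two fold change in thermal stability relative to solvent controls.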

Compound in the next experiment: O=C(O)c1ccc2c(c1)nc(Nc1cccc(Cl)c1)c1ccncc12 [silmitasertib]
The method in brief:
as §1

Compound in experiment [1]: O=C1NC(=O)C(c2cnc3ccccn23)=C1c1cn2c3c(cc(F)cc13)CN(C(=O)N1CCCCC1)CC2
The method in brief:
as §1

Compound in another experiment: c1cn2cc(-c3ccc4cn[nH]c4c3)nc(Nc3ccc(N4CCOCC4)cc3)c2n1 [entospletinib]
The method in brief:
as §1

Compound in experiment [2]: NCC(=O)Nc1ccc(-n2nc(C(F)(F)F)cc2-c2ccc3c(ccc4ccccc43)c2)cc1
Put shortly:
as §1

On to CCDC127 (UniProt Q96BQ5), for which the log2 fold change in the experiment with vorinostat was inactive: -0.062; with silmitasertib, inactive: 0.038; in experiment [1], inactive: -0.107; with entospletinib, inactive: 0.028.

Consider CBX3 (UniProt B8ZZ43), for which the log2 fold change in experiment [1] was inactive: 0.178.

As for CCDC18 (UniProt Q5T9S5), the log2 fold change is inactive: 0.05 in experiment [1] and inactive: 0.03 with entospletinib.

As to CCDC66 (UniProt A2RUB6), the log2 fold change with entospletinib is inactive: 0.094.

For the target CCDC175 (UniProt P0C221), the log2 fold change in experiment [2] is inactive: 0.353; with entospletinib, inactive: 0.002.

Turning to CCDC130 (UniProt P13994), the log2 fold change with vorinostat is inactive: -0.003; with silmitasertib, inactive: 0.173; in experiment [1], inactive: -0.306; with entospletinib, inactive: -0.076.

Regarding CASP10 isoform 2 (UniProt Q92851), the log2 fold change with entospletinib is inactive: 0.088.

On to CCDC126 (UniProt Q96EE4), for which the log2 fold change with vorinostat was inactive: -0.026; with silmitasertib, inactive: -0.059; in experiment [1], inactive: -0.058.

Take CCDC59 (UniProt Q9P031): the log2 fold change in experiment [2] is inactive: 0.014; in experiment [1], inactive: -0.003; with entospletinib, inactive: 0.09.

As for CCRL2 isoform 2 (UniProt O00421), the log2 fold change was inactive: 0.137 with vorinostat and inactive: -0.225 in the experiment with silmitasertib.

For CCNT2 (UniProt O60583), the results for the log2 fold change (in experiment [2]; in experiment [1]; with entospletinib) were inactive: 0.035, inactive: -0.031 and inactive: 0.059, respectively.

As for CCT8 (UniProt H7C4C8), the log2 fold change in experiment [1] is inactive: 0.124.

As to CAV2 (UniProt P51636), the log2 fold change is inactive: 0.114 with vorinostat, inactive: -0.227 in the experiment with silmitasertib and inactive: -0.064 in experiment [1].

Regarding CCNL1 (UniProt Q9UK58), the values for the log2 fold change (in experiment [1]; with entospletinib) were inactive: -0.041 and inactive: -0.059, respectively.

With CCDC57 (UniProt Q2TAC2), the log2 fold change is inactive: 0.006 in experiment [2] and inactive: -0.026 with entospletinib.

For CASTOR1 (UniProt Q8WTX7), in experiment [1], the log2 fold change was inactive: -0.07.

As for CCND2 (UniProt P30279), the log2 fold change was inactive: 0.206 in the experiment with vorinostat, inactive: -0.024 with silmitasertib and inactive: -0.005 in experiment [1].

For CASP7 isoform 3 (UniProt P55210), the log2 fold change in the experiment with vorinostat was inactive: -0.254; with silmitasertib, inactive: 0.113; in experiment [1], inactive: 0.01; with entospletinib, inactive: 0.063.

On to CBX8 (UniProt Q9HC52), for which the log2 fold change in experiment [2] is inactive: -0.164; in experiment [1], inactive: 0.059; with entospletinib, inactive: -0.161.

Take CCND1 (UniProt P24385): the log2 fold change in experiment [1] was inactive: 0.069.

For CCDC9, A0A2R8Y4Z8, the log2 fold change in experiment [1] was inactive: 0.173.

As to CCT3 (UniProt E9PM09), the log2 fold change is inactive: 0.292 in experiment [2], inactive: -0.381 with vorinostat, inactive: -0.097 with silmitasertib and inactive: 0.089 in the experiment with entospletinib.

For the target CASP2 (UniProt P42575), the log2 fold change was inactive: 0 in experiment [2]; inactive: 0.039 in the experiment with vorinostat; inactive: -0.038 with silmitasertib; inactive: -0.015 in experiment [1]; inactive: 0.003 with entospletinib.

Regarding CBFB (UniProt Q13951), the log2 fold change is inactive: -0.005 in the experiment with vorinostat, inactive: 0.025 with silmitasertib, inactive: -0.041 in experiment [1] and inactive: -0.032 with entospletinib.

With CD164 (UniProt Q04900), the results for the log2 fold change (in the experiment with vorinostat; with silmitasertib; in experiment [1]) were inactive: 0.117, inactive: -0.195 and inactive: -0.004, respectively.

For CD46 (UniProt P15529), the log2 fold change with vorinostat is inactive: 0.201; with silmitasertib it was inactive: 0.072; in experiment [1], inactive: -0.161.

As for CCDC13 (UniProt Q8IYE1), the log2 fold change in experiment [2] is inactive: 0.274; in experiment [1] it was inactive: 0.188; with entospletinib, inactive: -0.055.

Consider CCND3 (UniProt P30281), for which the log2 fold change is inactive: -0.051 in the experiment with vorinostat, inactive: 0.017 with silmitasertib, inactive: 0.086 in experiment [1] and inactive: 0.062 with entospletinib.

Turning to CD33 (UniProt P20138), in experiment [1], the log2 fold change was inactive: -0.32.

Take CCDC167 (UniProt Q9P0B6): the log2 fold change with vorinostat was inactive: 0.096; in the experiment with silmitasertib, inactive: 0.16; in experiment [1] it was inactive: 0.046.

For the target CD44 (UniProt P16070), the log2 fold change with vorinostat is inactive: -0.005; with silmitasertib it was inactive: 0.055; with entospletinib, inactive: 0.041.

Turning to CCDC85C (UniProt A6NKD9), the log2 fold change is inactive: 0.096 in experiment [2], inactive: 0.058 in experiment [1] and inactive: -0.005 with entospletinib.

CCDC43 isoform 2 (UniProt Q96MW1): the log2 fold change was inactive: 0.275 with vorinostat and inactive: -0.057 with silmitasertib.
